PubChem BioAssay AID1224826 – NIAID, 2016

Aim: 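Regulators of Tlr4 signalling leading to Tnf-alpha expression in macrophages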 (primary screen)
Cells: RAW264.7 G9 macrophages from mouse bearing reporters for p65 (GFP) and the Tnf promoter (mCherry)
Reagents: siRNA pool against mouse genes, 100 nM
Timing: 16 h of LPS stimulation, after 2 days of siRNA transfection
Conditions: bacterial lipopolysaccharide (Salmonella minnesota R595), 10 ng/ml
Read-out: 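Nuclear mCherry signal of the Tnf promoter reporter measured by imaging after background removal, scaled to each plate median and turned into robust z-scores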
Direction: Tnf reporter robust z-score: higher = stronger Tnf promoter reporter signal after LPS
Active means: 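a well counts as active at a score of -1.3 or below (Tlr4 knock-down control median) or above 3 (raised signal); controls and wells holding fewer than 50 cells are excluded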
Meaning of the calls: active = Tnf reporter clearly lowered or raised; inactive = no clear change in Tnf reporter
Shown is one part, drawn at random, of about 17,000 reagents tested. In the full data, about 1,110 (6.6%) are marked active. 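Active means lowered or raised reporter signal; replicate intensities are raw and not normalised per plate.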 Further read-outs or replicates are left out here.

What is on record for Cep15?
Tnf reporter robust z-score: 0.63; fewer than 50 cells in well: enough cells in well; Outcome: inactive

With Spaca7b, what does the deposit list?
Tnf reporter robust z-score: -0.25; fewer than 50 cells in well: enough cells in well; Outcome: inactive

How did the screen score Gpr83?
Tnf reporter robust z-score: -1.07; fewer than 50 cells in well: enough cells in well; Outcome: inactive

What did the screen give for Krt82?
Tnf reporter robust z-score: 1.41; fewer than 50 cells in well: enough cells in well; Outcome: inactive

For Nars2, how do the results read?
Tnf reporter robust z-score: -0.39; fewer than 50 cells in well: enough cells in well; Outcome: inactive

With Zbtb10, how do the results read?
Tnf reporter robust z-score: -1.16; fewer than 50 cells in well: enough cells in well; Outcome: inactive

What is on record for Fbxo8?
Tnf reporter robust z-score: 0.75; fewer than 50 cells in well: enough cells in well; Outcome: inactive

What is on record for Dnajc10?
Tnf reporter robust z-score: -0.53; fewer than 50 cells in well: enough cells in well; Outcome: inactive

For Cnot9, what does the deposit list?
Tnf reporter robust z-score: 0.42; fewer than 50 cells in well: enough cells in well; Outcome: inactive

For Cyp4a12a, how do the results read?
Tnf reporter robust z-score: 1.57; fewer than 50 cells in well: enough cells in well; Outcome: inactive

With Smarce1, what does the deposit list?
Tnf reporter robust z-score: -0.19; fewer than 50 cells in well: enough cells in well; Outcome: inactive

Laid out differently: 2 of the entries above.
{"gene": "Cyp4a12a", "Tnf reporter robust z-score": 1.57, "fewer than 50 cells in well": "enough cells in well", "Outcome": "inactive"}
{"gene": "Smarce1", "Tnf reporter robust z-score": -0.19, "fewer than 50 cells in well": "enough cells in well", "Outcome": "inactive"}

Additional reagents follow:
Which result is listed for Or7g18?
Tnf reporter robust z-score: 2.52; fewer than 50 cells in well: enough cells in well; Outcome: inactive

Which result is listed for Slc19a2?
Tnf reporter robust z-score: 0.17; fewer than 50 cells in well: enough cells in well; Outcome: inactive

For Tcta, what does the deposit list?
Tnf reporter robust z-score: -0.1; fewer than 50 cells in well: enough cells in well; Outcome: inactive

With Psmc2, how do the results read?
fewer than 50 cells in well: fewer than 50 cells per well; well left out of calls; Outcome: inactive

For Or6c65, what does the deposit list?
Tnf reporter robust z-score: -0.37; fewer than 50 cells in well: enough cells in well; Outcome: inactive

For Rcan2, what does the deposit list?
fewer than 50 cells in well: fewer than 50 cells per well; well left out of calls; Outcome: inactive

Which result is listed for 2010106E10Rik?
fewer than 50 cells in well: fewer than 50 cells per well; well left out of calls; Outcome: inactive

What did the screen give for Tbx19?
Tnf reporter robust z-score: -0.51; fewer than 50 cells in well: enough cells in well; Outcome: inactive

What did the screen give for Sav1?
Tnf reporter robust z-score: -1.54; fewer than 50 cells in well: enough cells in well; Outcome: active

What did the screen give for Pmpca?
Tnf reporter robust z-score: 1.18; fewer than 50 cells in well: enough cells in well; Outcome: inactive
